Measured values published in patent publication US20220056104A1 (Janssen / Centocor, published 2022).
No constants are given. Whether binding was seen depends on the method and setting. Some results given as binding are weak or reduced against the parent protein; the word gives no strength. Tags and fused reporters may be left off the sequences shown.

Target: T1, Recombinant DR3-Fc (R&D Systems, cat. #943-D3) (UniProt Q93038)
T1 sequence (looked up): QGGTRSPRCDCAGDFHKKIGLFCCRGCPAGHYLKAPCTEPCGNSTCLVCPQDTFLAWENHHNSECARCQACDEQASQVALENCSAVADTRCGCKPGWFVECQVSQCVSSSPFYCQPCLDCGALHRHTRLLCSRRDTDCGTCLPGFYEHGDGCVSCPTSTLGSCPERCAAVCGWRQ
Test: ELISA (FIG. 8C)

B1: TL1A N133Q (ligand)
chain: LKGQEFAPSHQQVYAPLRADGDKPRAHLTVVRQTPTQHFKNQFPALHWEHELGLAFTKNRMQYTNKFLLIPESGDYFIYSQVTFRGMTSECSEIRQAGRPNKPDSITVVITKVTDSYPEPTQLLMGTKSVCEVGSNWFQPIYLGAMFSLQEGDKLMVNVSDISLVDYTKEDKTFFGAFLL
binding: binds
